Assay results: publication PMC2778522

Sequences of proteins named here, by UniProt entry; tags and fusion partners are left off.
UniProt Q04207, whole entry: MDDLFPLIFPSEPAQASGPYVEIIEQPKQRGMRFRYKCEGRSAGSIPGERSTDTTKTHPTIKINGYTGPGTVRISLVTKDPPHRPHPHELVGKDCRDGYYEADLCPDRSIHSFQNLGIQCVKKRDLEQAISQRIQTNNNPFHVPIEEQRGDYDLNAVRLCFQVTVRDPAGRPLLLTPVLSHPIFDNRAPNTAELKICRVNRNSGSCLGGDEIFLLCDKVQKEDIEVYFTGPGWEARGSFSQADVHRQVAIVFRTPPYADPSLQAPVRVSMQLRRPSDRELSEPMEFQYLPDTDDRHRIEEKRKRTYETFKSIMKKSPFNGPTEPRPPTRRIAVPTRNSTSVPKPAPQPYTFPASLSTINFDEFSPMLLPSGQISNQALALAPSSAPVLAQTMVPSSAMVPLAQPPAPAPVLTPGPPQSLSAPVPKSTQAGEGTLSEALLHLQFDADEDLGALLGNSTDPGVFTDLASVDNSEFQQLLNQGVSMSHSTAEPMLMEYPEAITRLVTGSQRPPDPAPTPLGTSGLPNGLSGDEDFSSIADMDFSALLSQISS

Assays:
Assay in all cases: pull-down
Bcl-3 (mouse (MEF)) = target: T1, Bcl-3 (mouse (MEF)) (UniProt Q9Z2F6); conditions: mTNF 1 h, Pull-down: 20 mM HEPES pH 7.8, 50 mM KCl, 0.2 mM EDTA, 1.5 mM MgCl2, 1 mM DTT, 0.25% Triton, 10% glycerol, probe mixed with extract on ice 1 h, protein in an extract
T1 sequence (looked up, limits assumed): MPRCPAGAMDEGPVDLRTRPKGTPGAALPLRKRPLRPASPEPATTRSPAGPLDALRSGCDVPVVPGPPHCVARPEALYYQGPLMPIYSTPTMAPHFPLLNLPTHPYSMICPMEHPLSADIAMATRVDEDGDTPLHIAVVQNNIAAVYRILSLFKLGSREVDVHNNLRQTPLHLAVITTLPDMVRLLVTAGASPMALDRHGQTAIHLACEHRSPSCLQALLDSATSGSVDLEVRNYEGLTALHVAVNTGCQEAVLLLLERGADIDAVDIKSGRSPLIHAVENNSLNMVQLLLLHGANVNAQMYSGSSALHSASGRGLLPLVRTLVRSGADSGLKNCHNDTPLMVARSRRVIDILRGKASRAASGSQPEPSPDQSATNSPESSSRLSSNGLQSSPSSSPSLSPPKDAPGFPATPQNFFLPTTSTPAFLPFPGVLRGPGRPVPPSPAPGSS

p52 (mouse (MEF)) = target: T2, p52 (mouse (MEF)) (UniProt Q9WTK5); conditions: WT and E1A/Ras MEF nuclear extract, mTNF 1 h, not defective in E1A/Ras; Pull-down: 20 mM HEPES pH 7.8, 50 mM KCl, 0.2 mM EDTA, 1.5 mM MgCl2, 1 mM DTT, 0.25% Triton, 10% glycerol; probe mixed with extract on ice 1 h; protein in an extract
T2 sequence (looked up, limits assumed): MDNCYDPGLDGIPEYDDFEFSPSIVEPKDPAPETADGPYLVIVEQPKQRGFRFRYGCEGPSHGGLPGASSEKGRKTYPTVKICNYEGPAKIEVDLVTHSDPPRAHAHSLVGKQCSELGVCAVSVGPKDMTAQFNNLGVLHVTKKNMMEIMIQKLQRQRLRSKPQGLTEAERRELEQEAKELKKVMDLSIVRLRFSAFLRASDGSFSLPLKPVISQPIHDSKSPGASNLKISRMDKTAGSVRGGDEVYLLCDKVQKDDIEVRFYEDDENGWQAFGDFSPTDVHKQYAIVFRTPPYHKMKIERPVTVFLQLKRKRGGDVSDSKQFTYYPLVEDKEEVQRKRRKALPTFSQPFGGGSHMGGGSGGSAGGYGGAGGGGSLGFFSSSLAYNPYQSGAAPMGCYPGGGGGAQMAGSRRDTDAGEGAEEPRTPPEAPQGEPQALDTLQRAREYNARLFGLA

p50 (mouse (MEF)) = target: T3, p50 (mouse (MEF)) (UniProt P25799); conditions: WT and E1A/Ras MEF nuclear extract, mTNF 1 h, not defective in E1A/Ras; Pull-down: 20 mM HEPES pH 7.8, 50 mM KCl, 0.2 mM EDTA, 1.5 mM MgCl2, 1 mM DTT, 0.25% Triton, 10% glycerol; probe mixed with extract on ice 1 h; protein in an extract
T3 sequence (looked up, limits assumed): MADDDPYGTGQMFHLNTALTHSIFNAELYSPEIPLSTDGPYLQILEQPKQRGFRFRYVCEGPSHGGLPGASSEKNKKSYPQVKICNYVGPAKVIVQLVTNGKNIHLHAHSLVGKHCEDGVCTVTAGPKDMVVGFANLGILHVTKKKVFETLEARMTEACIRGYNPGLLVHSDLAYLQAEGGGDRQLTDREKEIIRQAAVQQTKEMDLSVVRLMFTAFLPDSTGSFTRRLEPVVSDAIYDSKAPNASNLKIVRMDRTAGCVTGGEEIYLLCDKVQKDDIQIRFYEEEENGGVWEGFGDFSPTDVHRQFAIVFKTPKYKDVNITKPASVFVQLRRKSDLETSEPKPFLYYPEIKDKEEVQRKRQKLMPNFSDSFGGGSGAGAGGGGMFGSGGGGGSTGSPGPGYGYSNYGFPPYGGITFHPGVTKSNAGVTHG

p65 (mouse (MEF)) = p65 (mouse (MEF)) (UniProt Q04207); conditions: WT and E1A/Ras MEF nuclear extract, mTNF 1 h, not defective in E1A/Ras; Pull-down: 20 mM HEPES pH 7.8, 50 mM KCl, 0.2 mM EDTA, 1.5 mM MgCl2, 1 mM DTT, 0.25% Triton, 10% glycerol; probe mixed with extract on ice 1 h; protein in an extract

## GTGACTTTGGAAAGTCCCGTGGAAATCCCCGGGC (double strand) [A20 promoter NF-kB site oligo]
Bcl-3 (mouse (MEF)); E1A/Ras MEF nuclear extract, Bcl-3 present in nuclei at similar amount
  binding result: no binding
Bcl-3 (mouse (MEF)); WT MEF nuclear extract
  binding result: binds
p52 (mouse (MEF))
  binding result: binds
p50 (mouse (MEF))
  binding result: binds
p65 (mouse (MEF))
  binding result: binds

The exact form of at least one protein or probe is not confirmed. Where cells or extracts were used, other partners may take part. For some assays here: No signal at the amounts used counts as a negative. For some assays here: Where a protein sequence is shown, tags need not be part of it. At least one verdict was read from the data and is not stated in words by the source.
